In all, about 52,000 sequences went through this assay and about 210 (0.4%) were called active.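 How the source made its calls: active means gene whose silencing raises cell survival under the drug, median off-target-corrected z-score across its silencing RNAs 2 or more; inactive means the rest.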 This is one part of the list.

The experiment can be described thus: Resistance to Poly (ADP-Ribose) Polymerase inhibitor: Gene Identification via Genome-wide siRNA Screen. The note with it: mouse BRCA2 R2336H ES cells, olaparib, CellTiter-Glo viability; active compounds read high. The method in brief:
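Mouse BRCA2 R2336H ES cells were reverse-transfected with siRNA (20 nM final), treated at 48 h with 500 nM olaparib, and read by CellTiter-Glo after 72 h. Scores: MAD-based z per siRNA, median per gene, seed off-target correction.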
(In ATP-based viability assays light output follows the ATP content of the culture.)
As to CCUUUCAUACUUACAUCCUTT against Gpr100, the z-score was inactive: 1.44.

In the case of GGAGAAGGGCCUGAAGUAUTT against Lsm5, the z-score was inactive: -0.418.

Regarding GGAGAAAUGAAGGUAUACATT against Col4a3bp, the z-score was inactive: -1.75.

On to GUAUUGGAAGCUCAUUUGATT against Pigf, for which the z-score is inactive: 0.402.

Turning to GGUGUUCUUGAGCUGUGAGTT against Igfbp7, the z-score is inactive: -1.03.

As for “GCAGAAGUUCUACAAUUACTT against 4930486G11Rik”, the z-score was inactive: 0.405.

Take GGAGAAUCUGAAGGACACCTT against Cd151: the z-score was inactive: 0.793.

With CCUAGAGCCGUGUGCAUACTT against Plp2, the z-score is inactive: 2.14.

Take GCUGGACCUUCAUGUAAUATT against Pcsk1: the z-score is inactive: 0.925.

As for GGAAGAGGCAGAAGUCAUCTT against Bcl2l12, the z-score is inactive: 0.572.

Take “GGAUUUAGGGACAACACAATT against 8430427H17Rik”: the z-score was inactive: 2.27.

Consider GAUGACUUUAUCCUCUUGGTT against Olfr1396, for which the z-score was inactive: -0.588.

Take GGUGGUUGGAGUACUCAAGTT against Capza1: the z-score is inactive: -0.456.

Regarding GCAAUUAGUAACUGAGAAUTT against Dpp10, the z-score is inactive: -0.414.

Regarding GGAUCAACGAGGUAAAGUCTT against Itga8, the z-score is inactive: -1.2.

As for GGCUGUCUUUGUUCCAGUATT against Tnfrsf10b, the z-score is inactive: -0.0684.

On to “GCGCAAAGAUGGCUAUUGCTT against 6330442E02Rik”, for which the z-score is inactive: -0.388.

As to GGAAGGCACGUGAAUGGUGTT against AI606181, the z-score was inactive: 0.835.

Take “GGCUUAGCCUUUUCUUCCCTT against 5730593N15Rik”: the z-score was inactive: -0.352.

For the sequence GCAGAUAACAACAGUUGAATT against B3gat2, the z-score was inactive: -0.122.

For the sequence CCGUUGCCUGAUAAGUUCUTT against Klf3, the z-score was inactive: 1.05.

For GCGGAUCAAUGUCUUGCCATT against Asl, the z-score was inactive: 1.44.

Take GCCACACAGUUUCAUCUCATT against Alg12: the z-score is inactive: 0.482.

As for GGAACAAUCACACAAGCUGTT against Gsh2, the z-score is inactive: 0.562.

As for GGCUGCUUAUUUCUGAAUCTT against Pcdha11, the z-score was inactive: 0.929.

Turning to GGCAUUAUUAACAAGAUUGTT against Eif2b1, the z-score is inactive: -0.127.

Turning to GGUAGAGAGACUGUAAUUATT against Ppp2r1b, the z-score is inactive: -1.33.

On to CGUAUACUGUGAUUGAUAUTT against Lcn5, for which the z-score was inactive: 0.502.

As for GGUACUCAUCCCUUCCUGATT against Mc1r, the z-score is inactive: -0.647.

With GGAACAUCUCUGAAUUAUGTT against Ndel1, the z-score was inactive: 0.872.

GCUGUAUUGUGCAAAUGGCTT against Prkci: the z-score is inactive: -0.617.

Consider “GGCUAUCUAAUCUUCCCGGTT against D14Ertd231e”, for which the z-score was inactive: -0.304.

Consider GGAGGAUACCUUCUUCUACTT against Mta3, for which the z-score is inactive: 0.46.

As to GCCUCCAUUAUUUGUUCUGTT against Olfr1058, the z-score is inactive: 0.218.

Consider GCUAUGCACUUUGUGGACCTT against Zpbp2, for which the z-score was inactive: 0.148.

In the case of CCUCUAUGAGUGUAAACCATT against Crim1, the z-score is inactive: -0.379.

For GGCCAAGUCUCCAAUUCUATT against Zec, the z-score is inactive: 0.595.

CCUUCCUUCGAAUUCGCUCTT against Dncl2a: the z-score is inactive: 0.404.

Take GGACAGGAUGGAUGGAAGUTT against Ing5: the z-score is inactive: 0.353.

In the case of “GGGUUCGAGAAAAAAUUGATT against D19Ertd721e”, the z-score is inactive: -0.296.

On to “GGAAGGAGAAGAAAACAUATT against 2410016F19Rik”, for which the z-score is inactive: -2.83.

For GCAAGAUCUGUGUAAAUGGTT against Gpx4, the z-score is inactive: -3.27.

Consider GCAUGGGUGAUCUCUGUAATT against LOC387334, for which the z-score was inactive: -1.28.

With GGCUCUAAACAAAAUUCAGTT against Gtf2e2, the z-score was inactive: 0.522.

GGUGUAAUUGGGAAAAUUCTT against Inpp5f: the z-score is inactive: 0.585.

For the sequence GGACCAGGUUUGUUUUUUATT against Epb7.2, the z-score was inactive: 0.642.

Consider CGGUGCAUACUCAAUAAACTT against Spag11, for which the z-score was inactive: 0.592.

Consider GGUCUGAUUGUCCUCUCUUTT against AB041549, for which the z-score is inactive: -1.46.

GGAAUUGGAUGCCAUCAUCTT against Tnnc2: the z-score was inactive: -1.07.

In the case of GGCCAUUUCCGUUUUAGGATT against Olfr319, the z-score is inactive: -0.267.

Turning to GGUGCAAGUUCGAACCAAGTT against Cdca8, the z-score is inactive: -1.24.

Take “GCGGCUUUGUAUACAAGUUTT against A830006F12Rik”: the z-score is inactive: -2.32.

On to GGUCUUUCUAUACAUCCUATT against Qscn6, for which the z-score was inactive: 1.04.

Regarding GGAAAUGAAGAGUGUUGAATT against Slc7a3, the z-score is inactive: -1.02.

For the sequence “GGAAGCCAAAGGUCUCAACTT against 2300002G24Rik”, the z-score is inactive: -0.0255.

Consider “GGAGGGAACAUGUGGAAGUTT against 2410091C18Rik”, for which the z-score is inactive: -0.903.

As for GCUCUAUAAGCUAUCAGGGTT against Ntn1, the z-score is inactive: 0.616.

Consider CCAUCGGCGACUUGAAGAATT against Ubl5, for which the z-score was inactive: -3.34.

For GGCAAAAGAACAAAGAAAATT against Mrps5, the z-score was inactive: 0.603.

For the sequence “GGGAUUCUAGACCAAUCCATT against 9130005N14Rik”, the z-score is inactive: 0.263.

“GCGUGUUGUGAUGUCACCUTT against D10Ertd214e”: the z-score is inactive: -2.79.

For the sequence GGUAGUGAGCAUUGAGAAGTT against Tbc1d8, the z-score was inactive: 0.895.

In the case of GGACCACCUAAGUUUAAGCTT against Pde6g, the z-score was active: 2.55.

With GGAAGAAUUUCUUGAGACATT against Gsta4, the z-score is inactive: 0.137.

GGAGAGACAUCCAAAAGUATT against H60: the z-score is inactive: -0.237.

As for GUCCCAACUCCGCUUUGUUTT against V1rc13, the z-score is inactive: -1.72.

Regarding CGCCAAAAGUUCUUGCCAUTT against Olfr618, the z-score is inactive: 1.19.

In the case of GGCUUUUGACUUCUUUGAGTT against Hs1bp3, the z-score was inactive: 0.298.

As to GGCUCUUGGUCCAAUAAAATT against Zdhhc14, the z-score is inactive: 0.215.

Regarding GUCACUGUGAUGGGAAAUUTT against Olfr895, the z-score is inactive: -0.545.

GCUACUCAGUCAACUCAAGTT against Ppp1r14d: the z-score was inactive: -0.141.

In the case of GGGAGUUAUAUAAAUGCAUTT against Taf7l, the z-score was inactive: 0.433.

For the sequence GCUCCAGGUCCUUAGAAUATT against Mod1, the z-score is inactive: 0.844.

GGACAUCUGGAUGUUCCCATT against BC023151: the z-score was inactive: -1.29.

For ACAUUCUUGGUUGAGUGCUTT against Olfr198, the z-score is inactive: 0.369.

For the sequence CGUGGUCAGGUUGUUUGAUTT against Cdk6, the z-score is inactive: 0.483.

Turning to GGCAGCAAAAACAAGAGCCTT against Hmga2, the z-score is inactive: -0.353.

Regarding “GGAAGUUGAUAAGAGAGUGTT against 2410004I17Rik”, the z-score is inactive: -1.1.

On to “CGCACCCACCAUGUUUUAUTT against D930005D10Rik”, for which the z-score is inactive: 0.0158.

On to GGACUCAGACAAGAUCUGCTT against Ctdsp1, for which the z-score was inactive: 0.818.

As for GCAAACGUACCAUCUACACTT against Uckl1, the z-score is inactive: 1.49.

As to GCACCUCCAGAAUGUUUUUTT against V1rc29, the z-score was inactive: 0.194.

For “GGUUUAGGUUUCAUAAUCCTT against 2310008M10Rik”, the z-score was inactive: -0.66.

Take GGGAAAUCUAUGGUGCUGUTT against Mpz: the z-score is inactive: 3.3.

In the case of GGAUUGGAACUAUUCUGUATT against Syvn1, the z-score was inactive: -0.223.

As to GGUGACACAGGAGAAGAAGTT against LOC239447, the z-score is inactive: -0.522.

Take CCAACGACAUGUACGACCUTT against Rest: the z-score was inactive: 1.69.

In the case of “GCUCAUGUUGCACUGGAAATT against A430108B07Rik”, the z-score is inactive: 1.06.

Consider GGAUUUAAGAAUGAAUGCCTT against Kcnip4, for which the z-score is inactive: -0.00988.

Regarding GCAAGAAGGUGAAGUGCAGTT against Fxyd7, the z-score was inactive: -1.28.

For CCAGCAUAUUGGAACUACUTT against Olfr986, the z-score is inactive: -1.37.

In the case of “CCGUAUCAUAACUAUCGCGTT against 5830416A07Rik”, the z-score was inactive: 0.84.

In the case of CCUCUACCCAGAUUAUGCATT against Grik1, the z-score was inactive: 0.0227.

Take GCGAAUAAGUAACUUGGUUTT against BC035537: the z-score is inactive: -0.632.

With “GCCUCAUUUGCUUCACUGUTT against 5830411N06Rik”, the z-score was inactive: -0.489.

As for GCUAUGACCAACCUAGAGATT against Sox5, the z-score was inactive: -0.676.

Take GGUUGCUGUUGAUGUCAGCTT against AV125803: the z-score was inactive: -0.424.

As to GCUCAACCUAACUUUGUGGTT against Ccdc3, the z-score was inactive: -1.01.

Consider CCCAGGCUAUUUCAACAAUTT against Arhgef11, for which the z-score is inactive: 2.14.

For GGUCACCGUCAAGUACGACTT against Ppp1r14b, the z-score was inactive: 0.307.

GGGAUGAUCUUAUAUGCUUTT against AA792892: the z-score is inactive: 2.04.

As to CCGUAGUAUCCACUGAUUGTT against Olfr1322, the z-score is inactive: -0.989.

On to GGGUUUUAUGACCUUCAAGTT against Zfp99, for which the z-score is inactive: -1.02.

On to GGCUCUUAAUUGCUGAGUUTT against Acadl, for which the z-score is inactive: -0.249.

The values above are taken from PubChem BioAssay AID1347423 (Functional Genomics Laboratory (NCATS/FGL), 2020).
